Results as given in PubChem BioAssay AID2685 (National Center for Advancing Translational Sciences (NCATS), 2010).
Screen size: about 320,000 compounds; about 2,100 (0.66%) were called active. Inconclusive results, whose numbers are uncertain, are shown with a selection of clear calls. The call rests on the fitted dose curve; in most records, active means well fitted inhibition curve with a large enough effect in the signal ratio, with a control signal flat (not every such curve was filed as active); inconclusive means small, poorly fitted or top-dose-only effect, or effect the other way, or a change in a side signal; inactive means flat fitted curve, though single readings scatter; the % refers to the signal ratio. Potencies of inconclusive entries are doubtful fits and often do not repeat.

Experiment: qHTS Assay for Lipid Storage Modulators in Drosophila S3 Cells
Conditions: BODIPY lipid droplet fluorescence, 18-24 h, cells fed with added oleic acid; lipid storage change, negative = inhibition: at 46.1 µM (top of the series) unless noted
Procedure, shortened: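 Drosophila S3 cells loaded with oleic acid (400 uM, as added) and compounds at several concentrations; lipid droplets imaged by 488-nm laser-scanning cytometry, 500–530 nm intensity and object ratio to cell channel. Percent activity normalized to 20 uM Triacsin C.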
On the % scale 0 is the no-effect control and ±100 the full control effect; potency means the concentration at half of the fitted maximal effect.

| Compound | lipid storage change, negative = inhibition | Potency | outcome |
| --- | --- | --- | --- |
| CC(C)C(=O)Nc1nnc(SCC(=O)NC2CC2)s1 | inconclusive: -42.5% |  |  |
| O=C(CNC(=O)C1CCCCC1)NCCCO | inconclusive: 23.4% |  |  |
| O=C(Cn1c2[n+](c3ccc(C(F)(F)F)cc31)CCCCC2)c1ccc2c(c1)OCCO2 | inconclusive: 82% |  |  |
| CCOC(=O)c1cc(-c2ccccc2)nn1Cc1cc(CC)no1 | inactive: 3.3% |  |  |
| CC(=O)NCC(=O)OCc1ccc([N+](=O)[O-])cc1 | inconclusive: -0.739% |  |  |
| Cc1ccc(Oc2ccccc2NC(=O)C2=COCCO2)cc1 | inconclusive: -70% |  |  |
| COc1ccc(-c2nnc(SC)o2)c(OC)c1 | inconclusive: -18.3% [at 9.22 µM] |  |  |
| Cc1ccccc1Cn1nc(C)c(NC(=O)C2c3ccccc3Oc3ccccc32)c1C |  | inconclusive: 25.9 µM [falling, partial curve, poor fit] |  |
| N#CC1=C(N)Oc2ccc3ccccc3c2C1c1cccnc1 (stereo not drawn) | inconclusive: 0.674% [at 9.22 µM] |  |  |
| Cc1cc(C)c(S(=O)(=O)N2CCOC2CNC(=O)C(=O)NCCCN2CCOCC2)c(C)c1 (stereo not drawn) |  |  | inactive [at 46.1 µM] |
| CCCCc1ccc(CC(=O)Nc2cc(S(=O)(=O)N3CCOCC3)ccc2O)cc1 |  | active: 20.6 µM |  |
| CCOC(=O)C1CCCN(c2c(NCc3ccco3)c(=O)c2=O)C1 (stereo not drawn) | inconclusive: -2.8% |  |  |
| Cc1ccc(C2(CC(=O)Nc3nccs3)CCOC(C(C)C)C2)cc1 (stereo not drawn) | inconclusive: -36% |  |  |
| OCCNCc1cc(Br)ccc1OCc1ccccc1Cl |  | inconclusive: 20.6 µM [falling, single point] |  |
| CC(C)N(C1=CC(=O)OC12CCCCC2)C(C)C | inconclusive: 15% |  |  |
| CC1Cc2ccccc2N1C(=O)CSc1nnc(-c2ccc(S(=O)(=O)N3CCCC3)cc2)n1C (stereo not drawn) |  | inconclusive: 13 µM [falling, partial curve, poor fit] |  |
| COC(=O)C(NS(=O)(=O)c1ccc(N2CCCC2=O)cc1)c1ccccc1 (stereo not drawn) | inconclusive: 7.19% |  |  |
| CC(C)n1c(CCCO)nc2ccccc21 |  | inconclusive: 0.731 µM [activator, full curve] |  |
| CCOc1ccc(CC(=O)NC2CCN(Cc3ccccc3)CC2)cc1 | inconclusive: -21.7% |  |  |
| COc1ccc(CNC(=O)c2c(O)c3cccc4c3n(c2=O)CCC4)cc1OC |  | inconclusive: 0.731 µM [activator, partial curve, poor fit] |  |
| CC1=C(C(=O)OCc2ccccc2)C(c2ccccc2)NC(=O)N1CCCC(=O)O (stereo not drawn) | inconclusive: 23.1% |  |  |
| CC(NC(=O)C1CCC(CNc2c(N3CCOCC3)c(=O)c2=O)CC1)c1ccccc1 (stereo not drawn) | inconclusive: -13.6% |  |  |
| O=C(NCc1ccco1)C(=S)N1CCCCC1 | inconclusive: -0.135% |  |  |
| CCCNS(=O)(=O)c1ccc(OCC(=O)N2CCc3ccccc3C2)c(C)c1 | inconclusive: -32.9% |  |  |
| O=c1[nH]c(=O)n(Cc2ccccc2)c2nc(-c3ccco3)cc(C(F)(F)F)c12 | inconclusive: 10.8% |  |  |
| COc1ccc(NC(=O)CN2C(=O)NC3(CCCCC3C)C2=O)cc1OC (stereo not drawn) | inconclusive: 7.77% |  |  |
| Oc1c(Br)cc(Br)cc1CNn1cnnc1 |  | inconclusive: 18.4 µM [falling, single point] |  |

Pulled by compound from the entries so far (4):

| Compound | lipid storage change, negative = inhibition | Potency | outcome |
| --- | --- | --- | --- |
| COc1ccc(NC(=O)CN2C(=O)NC3(CCCCC3C)C2=O)cc1OC (stereo not drawn) | inconclusive: 7.77% |  |  |
| CC(NC(=O)C1CCC(CNc2c(N3CCOCC3)c(=O)c2=O)CC1)c1ccccc1 (stereo not drawn) | inconclusive: -13.6% |  |  |
| O=C(CNC(=O)C1CCCCC1)NCCCO | inconclusive: 23.4% |  |  |
| CC1Cc2ccccc2N1C(=O)CSc1nnc(-c2ccc(S(=O)(=O)N3CCCC3)cc2)n1C (stereo not drawn) |  | inconclusive: 13 µM [falling, partial curve, poor fit] |  |

Next records

| Compound | lipid storage change, negative = inhibition | Potency | outcome |
| --- | --- | --- | --- |
| CCN1C(=O)[C@H]2[C@@H](c3ccc(-c4ccc(OC)cc4)c(OC)c3)N3CCCC[C@@]3(C(=O)OC)[C@H]2C1=O |  | active: 5.8 µM |  |
| Cc1ccc(Oc2nn[nH]n2)cc1 | inconclusive: 26.5% |  |  |
| Cn1c2ccsc2c2ncn(Cc3ccc(F)cc3)c(=O)c21 | inconclusive: 26.4% |  |  |
| Cc1ccc(Sc2c(C#N)c(-c3ccccc3)nn2C)cc1 | inconclusive: -56.3% |  |  |
| O=S(=O)(Nc1cc(C(F)(F)F)ccc1N1CCOCC1)c1ccc2ccccc2c1 | inconclusive: 25.6% |  |  |
| CN(Cc1cccs1)C(=O)COC(=O)CNC(N)=O | inconclusive: 0.887% |  |  |
| CC(Oc1ccccc1)C(=O)N1CCN(c2ccc(N3CCCCC3)nn2)CC1 (stereo not drawn) | inconclusive: 16.8% |  |  |
| COc1ccc(/C(N)=N/OC(=O)C2CCCCC2)cc1OC |  | inconclusive: 32.6 µM [falling, single point] |  |
| Cc1ccc(C(=O)NCC(c2ccco2)N2CCc3ccccc3C2)cc1 (stereo not drawn) | inconclusive: 29.3% |  |  |
| Oc1cccc2ccc(/C=C/c3ccc(Br)s3)nc12 | inconclusive: -3.46% |  |  |
| C=CCN1CC(=O)N2C(c3ccccc3)c3[nH]c4ccccc4c3C[C@H]2C1=O (stereo partly drawn) | inconclusive: 21.7% |  |  |
| Cc1ccc(-c2cn(-c3ccc(OC(F)F)cc3)c3[n+]2CCCCC3)cc1 | inconclusive: -6.41% |  |  |
| C=CCOc1ccc(/C=C2/C(=O)ON=C2C)cc1OC | inconclusive: -20.2% |  |  |
| COc1ccccc1C1NC(=O)NC(C)=C1C(=O)OCc1ccccc1 (stereo not drawn) | inactive: 7.18% |  |  |
| Cc1csc2nc(CSc3nc4ccccc4o3)cn12 |  | inconclusive: 2.91 µM [activator, full curve, poor fit] |  |
| CCOC(=O)N1CCN(C(=O)COC(=O)c2cccc(S(C)(=O)=O)c2)CC1 | inconclusive |  |  |
| CC(NC(=O)CCN1C(=O)c2ccccc2S1(=O)=O)c1ccccc1 (stereo not drawn) | inconclusive |  |  |
| O=C(NCc1ccco1)/C(=C\c1ccc(F)cc1)NC(=O)c1ccco1 |  | inconclusive: 5.17 µM [activator, partial curve] |  |
| CC(=O)NCc1cccc(CNC(C)=O)n1 | inconclusive: -4.01% |  |  |
| COC(=O)c1[nH]c2ccccc2c1NC(=O)Oc1ccccc1 | inconclusive: -23.3% [at 9.22 µM] |  |  |
| CCCCC(=O)NC(c1ccccc1Cl)c1ccc2cccnc2c1O (stereo not drawn) |  | inconclusive: 29.1 µM [falling, single point] |  |
| Cc1nc(-c2cccc(Br)c2)ccc1C(=O)O | inconclusive: 22.4% |  |  |
| CC1CC1C(=O)N(C)CC(=O)Nc1cccc(F)c1 (stereo not drawn) | inactive: -4.95% [at 0.0737 µM] |  |  |
| Cc1ccn2c(C(=O)CSc3ccc(Cl)cc3Cl)c(C)nc2c1 |  | inconclusive: 0.116 µM [activator, full curve, poor fit] |  |
| Cc1cccc(N(C)S(=O)(=O)c2c[nH]c3ccc([N+](=O)[O-])cc23)c1 |  | active: 2.59 µM |  |
| COc1cc(/C=C2\SC(=S)N(CCC(=O)Nc3ccccc3O)C2=O)cc(OC)c1OC | inactive: -14.3% |  |  |
